The values below come from publication PMC11438959.

The chains behind the UniProt entries cited, without tags or fusion partners. Residues count along the entry.
UniProt Q02248: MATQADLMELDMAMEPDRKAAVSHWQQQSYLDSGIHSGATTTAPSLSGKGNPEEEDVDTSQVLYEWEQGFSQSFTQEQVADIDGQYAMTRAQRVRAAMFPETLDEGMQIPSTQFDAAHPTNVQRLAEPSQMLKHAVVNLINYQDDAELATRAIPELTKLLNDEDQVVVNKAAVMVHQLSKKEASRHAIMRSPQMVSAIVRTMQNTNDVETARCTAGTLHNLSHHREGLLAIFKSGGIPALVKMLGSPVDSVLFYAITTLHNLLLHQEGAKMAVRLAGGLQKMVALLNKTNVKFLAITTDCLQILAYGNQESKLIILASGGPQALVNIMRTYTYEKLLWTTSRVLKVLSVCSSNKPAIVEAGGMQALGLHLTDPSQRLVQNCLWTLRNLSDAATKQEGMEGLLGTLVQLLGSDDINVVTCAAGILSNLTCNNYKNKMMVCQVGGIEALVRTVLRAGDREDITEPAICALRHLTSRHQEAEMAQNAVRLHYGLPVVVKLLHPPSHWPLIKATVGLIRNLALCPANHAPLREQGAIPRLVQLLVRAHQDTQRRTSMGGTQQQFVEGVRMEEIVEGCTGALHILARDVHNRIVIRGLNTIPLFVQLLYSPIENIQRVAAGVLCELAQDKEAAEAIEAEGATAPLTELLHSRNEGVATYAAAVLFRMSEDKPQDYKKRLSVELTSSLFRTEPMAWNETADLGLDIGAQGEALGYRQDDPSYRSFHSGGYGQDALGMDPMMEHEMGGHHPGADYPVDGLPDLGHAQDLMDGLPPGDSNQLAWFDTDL
UniProt Q61501: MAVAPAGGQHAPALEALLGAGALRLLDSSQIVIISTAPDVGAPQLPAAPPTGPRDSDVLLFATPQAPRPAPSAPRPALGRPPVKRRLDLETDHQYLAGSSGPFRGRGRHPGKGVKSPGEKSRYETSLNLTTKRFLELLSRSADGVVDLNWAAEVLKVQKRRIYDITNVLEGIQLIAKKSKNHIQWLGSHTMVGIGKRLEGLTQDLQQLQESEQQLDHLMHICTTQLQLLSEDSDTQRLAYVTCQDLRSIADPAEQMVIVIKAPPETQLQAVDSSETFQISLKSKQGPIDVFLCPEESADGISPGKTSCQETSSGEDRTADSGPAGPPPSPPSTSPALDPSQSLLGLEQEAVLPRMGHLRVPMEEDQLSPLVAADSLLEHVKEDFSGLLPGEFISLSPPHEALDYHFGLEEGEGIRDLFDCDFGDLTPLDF
UniProt P48972: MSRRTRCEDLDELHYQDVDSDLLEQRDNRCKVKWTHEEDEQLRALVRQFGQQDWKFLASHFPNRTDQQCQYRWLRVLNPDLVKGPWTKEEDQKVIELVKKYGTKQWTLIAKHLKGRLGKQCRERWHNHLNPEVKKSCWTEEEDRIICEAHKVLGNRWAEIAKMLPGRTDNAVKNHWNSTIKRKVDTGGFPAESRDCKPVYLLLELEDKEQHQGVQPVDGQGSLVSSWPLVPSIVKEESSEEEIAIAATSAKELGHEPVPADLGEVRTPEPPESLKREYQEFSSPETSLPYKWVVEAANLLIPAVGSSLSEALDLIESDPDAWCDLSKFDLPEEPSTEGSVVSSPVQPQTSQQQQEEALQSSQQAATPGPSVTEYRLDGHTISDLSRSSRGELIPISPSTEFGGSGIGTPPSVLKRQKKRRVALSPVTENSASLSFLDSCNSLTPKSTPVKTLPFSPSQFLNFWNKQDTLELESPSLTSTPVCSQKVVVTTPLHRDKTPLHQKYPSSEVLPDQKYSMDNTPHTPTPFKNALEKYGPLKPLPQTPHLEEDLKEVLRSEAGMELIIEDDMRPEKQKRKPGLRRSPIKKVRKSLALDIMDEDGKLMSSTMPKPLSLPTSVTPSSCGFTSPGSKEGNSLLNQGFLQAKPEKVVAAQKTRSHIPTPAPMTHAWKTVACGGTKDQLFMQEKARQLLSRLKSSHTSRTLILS
UniProt Q01705, residues 19-2531: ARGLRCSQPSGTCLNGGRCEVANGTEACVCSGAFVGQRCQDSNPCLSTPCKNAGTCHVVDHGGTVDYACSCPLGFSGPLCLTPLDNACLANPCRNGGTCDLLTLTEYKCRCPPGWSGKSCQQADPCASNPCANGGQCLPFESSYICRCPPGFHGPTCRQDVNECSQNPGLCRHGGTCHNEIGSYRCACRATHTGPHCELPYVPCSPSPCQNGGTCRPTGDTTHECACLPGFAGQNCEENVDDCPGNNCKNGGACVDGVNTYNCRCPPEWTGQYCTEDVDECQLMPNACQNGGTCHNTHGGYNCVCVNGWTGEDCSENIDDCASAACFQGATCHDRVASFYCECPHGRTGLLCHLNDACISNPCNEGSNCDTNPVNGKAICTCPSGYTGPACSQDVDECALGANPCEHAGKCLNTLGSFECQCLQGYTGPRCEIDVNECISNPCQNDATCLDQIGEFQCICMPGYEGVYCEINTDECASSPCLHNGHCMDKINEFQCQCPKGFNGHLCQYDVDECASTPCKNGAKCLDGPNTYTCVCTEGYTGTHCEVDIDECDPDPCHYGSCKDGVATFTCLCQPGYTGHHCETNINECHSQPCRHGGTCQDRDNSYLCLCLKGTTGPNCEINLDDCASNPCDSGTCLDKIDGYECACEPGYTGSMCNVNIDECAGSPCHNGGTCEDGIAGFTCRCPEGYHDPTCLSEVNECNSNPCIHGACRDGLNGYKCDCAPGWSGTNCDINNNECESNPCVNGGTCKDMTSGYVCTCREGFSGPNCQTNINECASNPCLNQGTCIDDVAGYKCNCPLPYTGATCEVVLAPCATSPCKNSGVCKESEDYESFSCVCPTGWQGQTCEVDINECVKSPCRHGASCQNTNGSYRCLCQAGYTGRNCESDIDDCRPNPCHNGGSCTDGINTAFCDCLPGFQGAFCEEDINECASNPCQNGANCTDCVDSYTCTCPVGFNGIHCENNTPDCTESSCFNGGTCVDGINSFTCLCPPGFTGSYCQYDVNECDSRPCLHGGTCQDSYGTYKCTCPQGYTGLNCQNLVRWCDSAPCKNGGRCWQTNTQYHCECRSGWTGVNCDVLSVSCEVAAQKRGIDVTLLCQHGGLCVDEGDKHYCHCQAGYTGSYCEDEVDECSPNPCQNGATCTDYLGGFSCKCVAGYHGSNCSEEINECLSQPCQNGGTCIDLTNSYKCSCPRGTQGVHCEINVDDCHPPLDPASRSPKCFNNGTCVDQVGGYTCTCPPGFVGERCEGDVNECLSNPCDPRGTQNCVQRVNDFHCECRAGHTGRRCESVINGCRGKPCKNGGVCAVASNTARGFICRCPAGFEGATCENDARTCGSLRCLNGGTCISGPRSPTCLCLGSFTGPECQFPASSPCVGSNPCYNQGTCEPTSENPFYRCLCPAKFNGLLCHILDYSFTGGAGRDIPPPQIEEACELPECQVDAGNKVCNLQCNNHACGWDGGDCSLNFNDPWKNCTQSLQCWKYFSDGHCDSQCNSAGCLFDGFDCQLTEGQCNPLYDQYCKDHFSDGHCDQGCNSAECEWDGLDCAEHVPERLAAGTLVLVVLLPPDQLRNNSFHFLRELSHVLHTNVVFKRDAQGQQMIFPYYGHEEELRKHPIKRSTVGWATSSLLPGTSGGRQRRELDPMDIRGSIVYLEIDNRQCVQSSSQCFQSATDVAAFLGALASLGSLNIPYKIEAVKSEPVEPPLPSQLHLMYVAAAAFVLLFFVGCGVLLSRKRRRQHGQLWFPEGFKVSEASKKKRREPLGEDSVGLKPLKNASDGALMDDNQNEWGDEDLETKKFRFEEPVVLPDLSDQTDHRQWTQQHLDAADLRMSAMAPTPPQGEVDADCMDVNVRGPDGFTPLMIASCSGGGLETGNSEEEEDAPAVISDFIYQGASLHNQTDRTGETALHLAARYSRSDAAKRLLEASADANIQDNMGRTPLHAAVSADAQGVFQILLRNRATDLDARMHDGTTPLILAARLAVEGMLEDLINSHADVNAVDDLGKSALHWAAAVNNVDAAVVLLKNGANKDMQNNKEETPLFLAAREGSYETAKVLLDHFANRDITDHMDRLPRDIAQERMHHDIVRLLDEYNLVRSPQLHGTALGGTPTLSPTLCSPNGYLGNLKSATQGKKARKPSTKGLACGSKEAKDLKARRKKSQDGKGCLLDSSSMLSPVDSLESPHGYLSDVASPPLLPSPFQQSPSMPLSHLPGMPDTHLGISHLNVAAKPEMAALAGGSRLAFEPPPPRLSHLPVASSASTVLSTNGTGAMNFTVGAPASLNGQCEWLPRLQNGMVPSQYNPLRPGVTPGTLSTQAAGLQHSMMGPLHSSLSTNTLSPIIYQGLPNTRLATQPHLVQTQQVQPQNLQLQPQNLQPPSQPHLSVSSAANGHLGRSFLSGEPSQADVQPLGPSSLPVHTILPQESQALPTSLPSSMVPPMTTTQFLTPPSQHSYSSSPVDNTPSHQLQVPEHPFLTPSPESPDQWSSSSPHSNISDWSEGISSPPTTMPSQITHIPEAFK
UniProt P31266: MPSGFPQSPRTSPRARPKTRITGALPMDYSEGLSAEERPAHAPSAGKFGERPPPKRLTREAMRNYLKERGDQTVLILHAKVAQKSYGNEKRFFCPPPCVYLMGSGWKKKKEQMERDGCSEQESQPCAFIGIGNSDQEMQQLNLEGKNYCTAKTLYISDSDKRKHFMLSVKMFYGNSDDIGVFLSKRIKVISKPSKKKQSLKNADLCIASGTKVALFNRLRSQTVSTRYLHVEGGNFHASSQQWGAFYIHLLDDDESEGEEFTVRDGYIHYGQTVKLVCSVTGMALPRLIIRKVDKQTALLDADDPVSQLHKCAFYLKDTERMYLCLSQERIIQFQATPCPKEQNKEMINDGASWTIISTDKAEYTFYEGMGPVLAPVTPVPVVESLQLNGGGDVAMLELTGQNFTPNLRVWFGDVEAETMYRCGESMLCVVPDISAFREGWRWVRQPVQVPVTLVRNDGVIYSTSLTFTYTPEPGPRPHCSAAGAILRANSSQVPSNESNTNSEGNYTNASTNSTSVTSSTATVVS

These are yes or no findings as the source states them, for the method shown. Binding seen in cells or lysates may run through a third protein. Some results given as binding are weak or reduced against the parent protein; the word gives no strength.

Experiment in all cases: co-IP; endogenous proteins in lysates (mild RIPA buffer, proteinase inhibitors) of WT, p21 null, G2DKO and p21G2TKO MEFs; pre-cleared, then incubated with Protein A/G Magnetic Beads and anti-Lin9, anti-E2F1 or anti-β-Catenin (non-phosphorylated (active)) antibody at 4 °C overnight; precipitates analysed by Western blotting
In assay [1] the target is T1, Lin9 (mouse (endogenous in MEFs)) (UniProt Q8C735).
T1 sequence: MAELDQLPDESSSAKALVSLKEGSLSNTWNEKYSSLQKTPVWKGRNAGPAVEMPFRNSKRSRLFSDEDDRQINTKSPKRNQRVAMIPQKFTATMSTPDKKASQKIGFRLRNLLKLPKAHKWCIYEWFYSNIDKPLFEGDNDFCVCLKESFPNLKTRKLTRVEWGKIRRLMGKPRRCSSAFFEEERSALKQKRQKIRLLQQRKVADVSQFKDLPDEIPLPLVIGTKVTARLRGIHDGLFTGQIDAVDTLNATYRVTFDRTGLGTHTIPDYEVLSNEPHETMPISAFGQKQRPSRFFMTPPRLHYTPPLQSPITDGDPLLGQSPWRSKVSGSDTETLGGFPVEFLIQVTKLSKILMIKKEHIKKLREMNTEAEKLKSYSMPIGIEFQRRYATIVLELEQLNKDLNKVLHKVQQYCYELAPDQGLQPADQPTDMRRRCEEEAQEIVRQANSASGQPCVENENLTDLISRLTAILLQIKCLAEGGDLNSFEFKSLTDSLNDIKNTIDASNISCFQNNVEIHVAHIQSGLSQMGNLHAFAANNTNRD

The target in assay [2] is β-Catenin (mouse (endogenous in MEFs)) (UniProt Q02248).
Assay [3] deals with E2F1 (mouse (endogenous in MEFs)) (UniProt Q61501).

B-Myb (from UniProt P48972 1-704): the binding entry in assay [1] is listed as “binds”. Regarding Notch1 (from UniProt Q01705 19-2531), the binding entry in assay [2] is “binds”.

Turning to Rbpj (from UniProt P31266 1-526), the binding result in assay [2] is recorded as “binds”.

B1: Rb (protein, UniProt P13405 1-921)
chain: MPPKAPRRAAAAEPPPPPPPPPREDDPAQDSGPEELPLARLEFEEIEEPEFIALCQKLKVPDHVRERAWLTWEKVSSVDGILEGYIQKKKELWGICIFIAAVDLDEMPFTFTELQKSIETSVYKFFDLLKEIDTSTKVDNAMSRLLKKYNVLCALYSKLERTCELIYLTQPSSALSTEINSMLVLKISWITFLLAKGEVLQMEDDLVISFQLMLCVVDYFIKFSPPALLREPYKTAAIPINGSPRTPRRGQNRSARIAKQLENDTRIIEVLCKEHECNIDEVKNVYFKNFIPFINSLGIVSSNGLPEVESLSKRYEEVYLKNKDLDARLFLDHDKTLQTDPIDSFETERTPRKNNPDEEANVVTPHTPVRTVMNTIQQLMVILNSASDQPSENLISYFNNCTVNPKENILKRVKDVGHIFKEKFANAVGQGCVDIGVQRYKLGVRLYYRVMESMLKSEEERLSIQNFSKLLNDNIFHMSLLACALEVVMATYSRSTLQHLDSGTDLSFPWILNVLNLKAFDFYKVIESFIKVEANLTREMIKHLERCEHRIMESLAWLSDSPLFDLIKQSKDGEGPDNLEPACPLSLPLQGNHTAADMYLSPLRSPKKRTSTTRVNSAANTETQAASAFHTQKPLKSTSLALFYKKVYRLAYLRLNTLCARLLSDHPELEHIIWTLFQHTLQNEYELMRDRHLDQIMMCSMYGICKVKNIDLKFKIIVTAYKDLPHAAQETFKRVLIREEEFDSIIVFYNSVFMQRLKTNILQYASTRPPTLSPIPHIPRSPYKFSSSPLRIPGGNIYISPLKSPYKISEGLPTPTKMTPRSRILVSIGESFGTSEKFQKINQMVCNSDRVLKRSAEGGNPPKPLKKLRFDIEGADEADGSKHLPAESKFQQKLAEMTSTRTRMQKQRMNESKDVSNKEEK
Consider B1, for which the binding result in assay [3] is on record as “binds”.

B2: p130 (protein, UniProt Q64700 1-1135)
chain: MASGGNQSPPPPPAAAASSEEEEEDGDAADRAQPAGSPSHQIQQRFEELCSRLNMDEAARAEAWSSYRSMSESYTLEGNDLHWLACALYVACRKSVPTVSKGTAEGNYVSLTRILRCSEQSLIEFFNKMKKWEDMANLPPHFRERTERLERNFTVSAVIFKKYEPIFQDIFKYPQEEQPRQQRGRKQRRQPCTTSEIFHFCWVLFIYAKGNFPMISDDLVNSYHLLLCALDLVYGNALQCSNRKELVNPNFKGLSEDCHPKDSKASSDPPCVIEKLCSLHDGLVLEAKGIKEHFWKPYIRKLFEKKLLKGKEENLTGFLEPGNFGESFKAVNKAYEEYVLAAGNLDERVFLGEDAEEEVGTLSRCLSAASGTESAERTQMRDILQQHLDKSKALRVCTPLTGVRYVQENSPCVTPVSTAAHSLSRLHTMLSGLRNAPSEKLERILRSCSRDPTQAIADRLKEMYEIYSQHFQPDENFSNCAKEIANKHFRFAEMLYYKVLESVIEQEQKRLGDMDLSGVLEHDAFHRSLLACCLEVVAFSHKPPGNFPFIAEIFDVPHYHFYKVIEVFIRAEDGLCREVVKHLNQIEEQILDHLAWKTKSPLWDRIRDNENRVPTCEEVMPPQNLERTDEIYIAGSPLTPRRVGEVRADAGGLGRSITSPTTLYDRYSSPTVSTTRRRLFENDSPSEGSTSGRIPPQPLVNAVPVQNVPGETVSVTPVPGQTLVTMATATVTANNGQTVTIPVQGIANENGGITFFPVQVNVGGQAQAVAGSIQPLSAQALAGSLSSQQVTGTTLQVPGPVAIQQISPGGQQQNPGQPLTSSSIRPRKTSSLALFFRKVYYLAGVRLRDLCIKLDISDELRKKIWTCFEFSIIQCTELMMDRHLDQLLMCAIYVMAKVTKEDRSFQNIMRCYRTQPQARSQVYRSVLIKGKRRNSGSSESRSHQNSPTELNTDRASRDSSPVMRSNSTLPVPQPSSAPPTPTRLTGASSDVEEEERGDLIQFYNNIYRKQIQAFAMKYSQANAQTDTPPLSPYPFVRTGSPRRVQLSQSHPIYISPHNNEAMPSPREKIFYYFSNSPSKRLREINSMIRTGETPTKKRGILLDDGSESPAKRICPENHSALLRRLQDVANDRGSQ
Consider B2, for which the binding entry in assay [1] is listed as “binds”.

B3: p107 (protein, UniProt Q64701 1-1063)
chain: MFEDEPHAEGAAAVAAAREALQALCQELNLDEGSAAEALDDFTAIRGNYSLEGEVIHWLACSLYVACRKSIIPTVGKGVMEGNCVSLTRILRSAKLSLIQFFSKMKKWMDMSNLPQEFRERIERLERNFEVSTVIFKKFEPIFLDIFQNPYEEPPKLPRSRKQRRIPCSVKDLFNFCWTLFVYTKGNFRMIGDDLVNSYHLLLCCLDLIFANAIMCPNRRDLLNPSFKGLPSDFHAPDFKAAEEPPCIIAVLCDLHDGLLVEAKGIKEHYFKPYISKLFDKKILKGECLLDLSSFTDNSKAVNKEYEEYVLTVGDFDERIFLGADAEEEIGTPRKFTADTPFGKLTSQASVECNLQQHFEKKRSFAPSTPLTGRRYLQEKEAVTTPVASATQSVSRLQSIVAGLKSAPSEQLLNIFESCMRNPMGNIIKIVKGIGETFCQHYTQSTDKQPGSHIDFAVNRLKLAEILYYKILETIMVQETRRLHGMDMSVLLEQDIFHKSLMACCLEIVLFAYSSPRTFPWIIEVLDLQPFYFYKVIEVVIRSEEGLSRDMVKHLNSIEEQILESLAWTNNSALWEALHASANRVPSCEEVIFPNNFEIGNGGNVQGHLPMMPMSPIIHPRVKEVRTDSGSLRQDMQPLSPISVHERYSSPAAGSAKRRLFGDDPPKDTLMDKIMAEGTKLKIAPSSVTAESLSISPGQALLTMATTTVTGTTGRKVTVPLHGIANDAGEITLVPISMNPTQESTAESPVSLTAQSLIGTSPKQTHLTKAQDAHLTGVSKPKRTGSLALFYRKVYHLASVRLRDLCLKLDVSNELRRKIWTCFEFTLVHCPDLMKDRHLDQLLLCAFYIMAKVTKEERTFQEIMKSYRNQPQANSHVYRSVLLKSIPGGVVVYNGDCEMTDGDIEDATKTPNCSSEPVKEERGDLIKFYNTVYVGRVKSFALKYDLSNQDHIMDAPPLSPFPHIKQQPGSPRRISQQHSLYVSPHKNGAGLTPRSALLYKFNGSPSKSLKDINNMIRQGEQKTKKRVIAISGDADSPAKRLCQENDDVLLKRLQDVVSERANH
On to B3, for which the binding entry in assay [3] is “binds”.
